# In paper PMC5996148:
# The other results are listed elsewhere or left out.
# How the values were obtained:
# Test in all cases: protein microarray (ProtoArray v5.0), streptavidin-Alexa Fluor 647
# Settings in all cases: 3'-biotin; 20 mM Tris (pH 7.5), 5 mM MgCl2, 100 mM KCl, 0.1% Tween-20, A/T-rich and random oligonucleotide blockers; temperature not stated; high values mean tight binding
# Secretagogin (human) = test system: Secretagogin (human)
# [1] = test system: Selenium-binding protein 1 (human)
# Selenoprotein P (human) = test system: Selenoprotein P (human)
# Septin-12 (human) = test system: Septin-12 (human)
# Septin-2 (human) = test system: Septin-2 (human)
# Sequestosome-1 (human) = test system: Sequestosome-1 (human)
# [2] = test system: Serine protease inhibitor Kazal-type 2 (human)
# [3] = test system: Serine-protein kinase ATM (human)
# [4] = test system: Serine/threonine-protein kinase 16 (human)
# [5] = test system: Serine/threonine-protein kinase 40 (human)
sequence,measurement,setting,value
GGGAGGCTGAGGCAGG [G4-1 biotinylated (PQS2)],binding signal,Secretagogin (human),-0.363 z-score
same,binding signal,[1],-0.344 z-score
same,binding signal,Selenoprotein P (human),-0.348 z-score
same,binding signal,Septin-12 (human),-0.307 z-score
same,binding signal,Septin-2 (human),-0.356 z-score
same,binding signal,Sequestosome-1 (human),-0.315 z-score
same,binding signal,[2],-0.324 z-score
same,binding signal,[3],-0.334 z-score
same,binding signal,[4],-0.294 z-score
same,binding signal,[5],-0.292 z-score
